The values below come from patent US6833135.

The data set has as its system T1, Ms6 integrase (Int) (Mycobacterium phage Ms6).
T1 sequence: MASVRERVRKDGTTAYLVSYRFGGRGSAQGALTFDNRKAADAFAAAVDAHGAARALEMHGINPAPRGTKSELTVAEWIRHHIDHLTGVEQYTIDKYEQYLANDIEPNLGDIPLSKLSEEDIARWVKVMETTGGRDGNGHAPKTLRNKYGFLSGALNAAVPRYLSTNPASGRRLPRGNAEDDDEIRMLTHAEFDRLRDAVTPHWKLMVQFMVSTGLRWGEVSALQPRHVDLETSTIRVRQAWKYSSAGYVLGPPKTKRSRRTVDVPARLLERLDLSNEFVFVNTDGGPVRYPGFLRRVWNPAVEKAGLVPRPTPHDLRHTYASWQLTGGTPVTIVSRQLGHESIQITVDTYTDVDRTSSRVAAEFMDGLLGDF
The experiment in a line: activity in cells. As to conditions: Southern blot of pAV1 integration at attB in M. smegmatis; protein in cells.

Tags and fusion partners may be left off the protein sequences shown.

Take “GGTAGCGCACCACACTGGCAGTGTGGGGGTCAGGGGTTCGAATCCCCTTAGCTCCACTCCTCAGATACCCGCTCCGGC (double strand) [M. smegmatis attB (tRNA-Ala 3' end)]”: the “activity on this sequence” value is listed as “active”.
